PubChem BioAssay AID1259254 – NCATS, 2017
The whole screen tested about 59,000 reagents; shown is an unselected part. About 1,550 of them (2.6%) were called active. 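G2 share is only a proxy for re-replication; each gene was hit by three separate siRNAs, and active genes were retested.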 Entries without a mark were called inactive. Reagents against one gene are numbered here. Not all columns of the deposit are shown. Not given: the amount of reagent.

Test: 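Genome-wide screen for genes that prevent DNA re-replication in cancer cells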 (primary screen)
Cell system: human HCT116 colorectal cancer cells
Reagents: single siRNA against human genes
Time to read-out: 3 days
Measured: 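Nuclei stained with Hoechst and imaged; cell-cycle phase assigned by DNA content; G2 share scaled per plate, non-targeting siRNA 0%, GMNN siRNA 100%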
Reading the numbers: G2 robust z-score: higher = more G2 cells, more excess DNA replication
Rule for the call: 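Active siRNAs have a G2 robust z of 5 or more median absolute deviations over the median, which in these data means about 38% or higher of GMNN control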

| target | reagent no. | G2 robust z-score |
| --- | --- | --- |
| LAMTOR3 | 1 | -0.665 |
| LAMTOR3 | 2 | -1.26 |
| LAMTOR3 | 3 | 0.735 |
| PSMC5 | 1 | 0.204 |
| PSMC5 | 2 | 0.569 |
| PSMC5 | 3 | 13.2 (active) |
| CDHR5 | 1 | 0.715 |
| CDHR5 | 2 | 0.694 |
| CDHR5 | 3 | -0.599 |
| GRIA3 | 1 | -1.31 |
| GRIA3 | 2 | 2.31 |
| GRIA3 | 3 | 0.011 |
| SNRPA | 1 | -0.963 |
| SNRPA | 2 | 0.312 |
| SNRPA | 3 | 0.402 |
| ZCCHC4 | 1 | -0.365 |
| ZCCHC4 | 2 | -1.16 |
| ZCCHC4 | 3 | 0.275 |
| DYNLT1 | 1 | -1.49 |
| DYNLT1 | 2 | -0.893 |
| DYNLT1 | 3 | -0.541 |
| USO1 | 1 | -0.187 |
| USO1 | 2 | -0.408 |
| USO1 | 3 | -0.854 |
| HSPA1A | 1 | -0.862 |
| HSPA1A | 2 | 0.243 |
| HSPA1A | 3 | 0.967 |
| SFRP1 | 1 | 0.173 |
| SFRP1 | 2 | -0.592 |
| SFRP1 | 3 | -0.683 |
| PYGO2 | 1 | 0.918 |
| PYGO2 | 2 | 0.828 |
| PYGO2 | 3 | 1.31 |
| POLRMT | 1 | -1.11 |
| POLRMT | 2 | -0.736 |
| POLRMT | 3 | -0.767 |
| NMNAT2 | 1 | -0.537 |
| NMNAT2 | 2 | 2.52 |
| NMNAT2 | 3 | -1.16 |
| ACADM | 1 | 0.157 |
| ACADM | 2 | -0.443 |
| ACADM | 3 | -0.623 |
| UQCC6 | 1 | 0.0552 |
| UQCC6 | 2 | -0.176 |
| UQCC6 | 3 | -0.331 |
| CASP1 | 1 | -1.19 |
| CASP1 | 2 | -0.143 |
| CASP1 | 3 | -0.915 |
